Source: PubChem BioAssay AID1487 (National Center for Advancing Translational Sciences (NCATS), 2009)
This is one part of the list. Shown are side measurements of this screen, not its main read-out; they come without a call. Compounds called inactive in the main read-out are mostly missing here. The note in brackets gives the kind of curve behind each potency; many fits are weak.

Test: qHTS Assay for Modulators of Lamin A Splicing
Conditions: HeLa LMNA splicing GFP/RFP minigene ratio, 48 h
In short: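 S3 HeLa stable clones carrying a lamin A-EGFP splicing minigene plus DsRed2 were seeded at 600 cells/well in Opti-MEM with 2% FBS, pin-dosed and incubated 48 h at 37°C. Acumen cytometry (488 nm) gave the GFP/RFP total-intensity ratio.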

[1] = measured here: RFP viability control channel
[2] = measured here: GFP splicing reporter channel

SMILES | AC50 [1] | AC50 [2]
CC(=O)n1c2c(c3ccccc31)OC(N)=C(C#N)C2c1cccc(Cl)c1Cl (centres undefined) | 7.94 µM [rising, partial curve] | –
COc1ccc(CCNC(=S)Nc2ccc(OC)cc2)cc1 | 35.5 µM [rising, single point] | 22.4 µM [rising, partial curve, poor fit]
CCN(CC)c1ccc(S(=O)(=O)Nc2cc(Cl)ccc2Cl)cc1NC(=S)NC(=O)C1CCCC1 | 35.5 µM [rising, single point] | 12.6 µM [rising, partial curve]
Cc1cccc(-c2nc(CS(=O)CC(=O)NCCCSC3CCCCC3)c(C)o2)c1 (centres undefined) | 15.8 µM [rising, single point] | –
CC(Oc1ccccc1)c1ccnc2nc(N3CCOCC3)nn12 (centres undefined) | 35.5 µM [falling, single point] | 35.5 µM [falling, single point]
CC(=O)c1ccc(NC(=O)/C=C/c2ccc(C)cc2)cc1 | 35.5 µM [rising, single point] | 35.5 µM [rising, single point]
CCN(CC)CCOc1ccc2c(c1)C(=NNC(=O)c1ccccn1)c1cc(OCCN(CC)CC)ccc1-2 | 35.5 µM [falling, single point] | 35.5 µM [falling, single point]
Cc1ccc2[nH]c(C)c(CCNC(=O)NC3CCCCC3)c2c1 | 6.31 µM [falling, single point] | –
Cc1cc(NC(=O)c2cc3ccccc3o2)cc(C)c1OCC(=O)N1CCOCC1 | 20 µM [rising, partial curve, poor fit] | –
CC(C)(C)c1ccc(C(=O)CC(Sc2ccc(Cl)cc2)C(=O)O)cc1 (centres undefined) | – | 0.02 µM [falling, full curve, poor fit]
Cc1ccc(OCC(=O)c2cc(C)n(CC(F)(F)F)c2C)c([N+](=O)[O-])n1 | 11.2 µM [rising, partial curve] | 11.2 µM [rising, partial curve, poor fit]
CC[C@H]1OC(=O)[C@H](C)[C@@H](O[C@H]2C[C@@](C)(OC)[C@@H](O)[C@H](C)O2)[C@H](C)[C@@H](O[C@@H]2O[C@H](C)C[C@H](N(C)C)[C@H]2O)[C@](C)(O)C[C@@H](C)CN(C)[C@H](C)[C@@H](O)[C@]1(C)O | 0.631 µM [falling, partial curve, poor fit] | –
CCN(CC)CCNC(=O)CNC(=S)N(CCCN1CCOCC1)Cc1cccs1 | – | 6.31 µM [falling, single point]
O=C(c1nn(-c2ccccc2)c(=O)c2ccccc12)N1CCN(c2ncccn2)CC1 | 11.2 µM [rising, single point] | –
Cc1ccc(C(=O)C(C)Sc2nnc(N)s2)cc1 (centres undefined) | – | 0.02 µM [falling, full curve, poor fit]
COc1ccc(-c2cc(C(F)(F)F)nc(NC3CCCC3)n2)cc1OC | 11.2 µM [falling, partial curve] | 22.4 µM [falling, single point]

Arranged by molecular weight (rising): three of the compounds above
SMILES | AC50 [1] | AC50 [2]
COc1ccc(CCNC(=S)Nc2ccc(OC)cc2)cc1 | 35.5 µM [rising, single point] | 22.4 µM [rising, partial curve, poor fit]
O=C(c1nn(-c2ccccc2)c(=O)c2ccccc12)N1CCN(c2ncccn2)CC1 | 11.2 µM [rising, single point] | –
CC[C@H]1OC(=O)[C@H](C)[C@@H](O[C@H]2C[C@@](C)(OC)[C@@H](O)[C@H](C)O2)[C@H](C)[C@@H](O[C@@H]2O[C@H](C)C[C@H](N(C)C)[C@H]2O)[C@](C)(O)C[C@@H](C)CN(C)[C@H](C)[C@@H](O)[C@]1(C)O | 0.631 µM [falling, partial curve, poor fit] | –

(further entries)

SMILES | AC50 [1] | AC50 [2]
COCC(C)NC(=O)c1ccc(CN2CCc3ccccc3C2)cc1 (centres undefined) | 0.0224 µM [falling, full curve] | 0.794 µM [falling, partial curve]
Cc1cc(C)c(/C=C/c2onc(C)c2S(=O)(=O)N2CCC(C(=O)Nc3ccc(Cl)c(C(F)(F)F)c3)CC2)c(C)c1 | 20 µM [rising, single point] | 5.62 µM [rising, single point]
COc1cccc(OC)c1OCc1cc(C2C3CCCC=C3C(C#N)=C(N)C2(C#N)C#N)c(C)cc1C (centres undefined) | 22.4 µM [falling, single point] | 35.5 µM [falling, single point]
CCOc1ccccc1NC(=O)C(OC(=O)c1ccc(N(C)C)cc1)c1ccccc1 (centres undefined) | 35.5 µM [rising, single point] | –
CC1Cc2ccccc2N1C(=O)CSc1nnc(-c2cccc(Cl)c2)o1 (centres undefined) | 0.0708 µM [falling, full curve, poor fit] | 0.141 µM [falling, full curve]
CCOc1ccccc1OCCCOc1ccc([N+](=O)[O-])cc1Cl | 35.5 µM [falling, single point] | 15.8 µM [falling, single point]
Cc1ccc(NC(=S)NC(C)CCc2ccccc2)cc1C (centres undefined) | 22.4 µM [rising, single point] | 11.2 µM [rising, single point]
Clc1cccc2sc(N3CCN(c4ccccc4)CC3)nc12 | 28.2 µM [rising, single point] | –
Clc1ccc(OCc2nc(-c3ccncc3)no2)cc1 | 31.6 µM [rising, single point] | –
Cc1ccc(C(=O)NCC(=O)OC(C)C(=O)Nc2ccc(N(C)C)cc2)cc1C (centres undefined) | 1.26 µM [falling, partial curve, poor fit] | –
C[C@@H]1CCC[C@H](C)N1NC(=O)c1ccc(Cl)c(S(N)(=O)=O)c1 | 0.316 µM [falling, full curve, poor fit] | 0.251 µM [falling, full curve]
CCc1ccc(C(=O)/C=C/c2cnn(C)c2C)s1 | 0.02 µM [falling, full curve, poor fit] | 0.0224 µM [falling, full curve, poor fit]
O=C(N1CCN(c2ccccc2)CC1)C12CC3CC(CC(C3)C1)C2 | 35.5 µM [rising, single point] | 15.8 µM [rising, single point]
CSC1=NSC2=NC(=O)/C(=C/c3coc4ccc(O)cc4c3=O)C(=N)N12 | 0.0282 µM [rising, full curve, poor fit] | –
Cc1ccc2c(c1)Oc1ccc(NC(=O)CCCl)cc1C(=O)N2 | 0.1 µM [falling, full curve] | 0.0891 µM [falling, full curve]
COc1cccc2sc(Nc3nc(C)c(C(C)=O)s3)nc12 | 20 µM [rising, single point] | –
